Test results: publication PMC4991450, “Protein arginine methyltransferase 1 may be involved in pregnane x receptor-activated overexpression of multidrug resistance 1 gene during acquired multidrug resistant” (Oncotarget, 2016)
Results are given in words; binding and its absence hold for the method and conditions named. In cells and extracts the contact can be indirect. Some results given as binding are weak or reduced against the parent protein; the word gives no strength.

Amino acid sequences for entries named in this document (tags omitted).
UniProt Q99873: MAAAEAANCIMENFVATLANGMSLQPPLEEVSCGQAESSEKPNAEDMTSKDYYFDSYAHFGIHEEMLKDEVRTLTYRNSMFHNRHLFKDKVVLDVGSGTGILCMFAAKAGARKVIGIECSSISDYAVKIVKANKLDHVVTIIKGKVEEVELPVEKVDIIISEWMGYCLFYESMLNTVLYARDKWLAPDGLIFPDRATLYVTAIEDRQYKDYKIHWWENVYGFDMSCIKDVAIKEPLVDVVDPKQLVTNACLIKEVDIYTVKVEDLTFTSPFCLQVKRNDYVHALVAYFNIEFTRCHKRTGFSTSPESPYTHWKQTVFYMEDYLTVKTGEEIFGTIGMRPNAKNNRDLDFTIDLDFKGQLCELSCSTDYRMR

Key:
[1] = target: Protein arginine methyltransferase 1 (human (endogenous in MCF7/adr)) (UniProt Q99873); assay: condition: only cells treated with 4.5 μg/mL of AMI-1 for 24 h; co-IP; as a1, but MCF7/adr cells treated with 4.5 μg/mL of AMI-1 for 24 h before lysis
[2] = target: Protein arginine methyltransferase 1 (human (endogenous in MCF7/adr)) (UniProt Q99873); assay: co-IP; MCF7/adr cell lysate; anti-PRMT1 antibody overnight at 4°C, Protein A + G agarose 2 h at 4°C; blot with anti-PRMT1 and anti-PXR; isotype IgG as negative control; cells in drug-free medium for 2 weeks before the assay, also on the 14th day of the adriamycin removal experiment

B1: Pregnane x receptor (protein, UniProt O75469 1-434)
chain: MEVRPKESWNHADFVHCEDTESVPGKPSVNADEEVGGPQICRVCGDKATGYHFNVMTCEGCKGFFRRAMKRNARLRCPFRKGACEITRKTRRQCQACRLRKCLESGMKKEMIMSDEAVEERRALIKRKKSERTGTQPLGVQGLTEEQRMMIRELMDAQMKTFDTTFSHFKNFRLPGVLSSGCELPESLQAPSREEAAKWSQVRKDLCSLKVSLQLRGEDGSVWNYKPPADSGGKEIFSLLPHMADMSTYMFKGIISFAKVISYFRDLPIEDQISLLKGAAFELCQLRFNTVFNAETGTWECGRLSYCLEDTAGGFQQLLLEPMLKFHYMLKKLQLHEEEYVLMQAISLFSPDRPGVLQHRVVDQLQEQFAITLKSYIECNRPQPAHRFLFLKIMAMLTELRSINAQHTQRLLRIQDIHPFATPLMQELFGITGS
- binding [1]: no binding
- binding [2]: binds
